According to PMC4904285:
These are yes or no findings as the source states them, for the method shown. Binding seen in cells or lysates may run through a third protein. Some binding calls cover weakened binding; strength is not graded here.

Protein sequences, listed by entry. Tags and fused reporters are not part of them.
UniProt Q9NFU0: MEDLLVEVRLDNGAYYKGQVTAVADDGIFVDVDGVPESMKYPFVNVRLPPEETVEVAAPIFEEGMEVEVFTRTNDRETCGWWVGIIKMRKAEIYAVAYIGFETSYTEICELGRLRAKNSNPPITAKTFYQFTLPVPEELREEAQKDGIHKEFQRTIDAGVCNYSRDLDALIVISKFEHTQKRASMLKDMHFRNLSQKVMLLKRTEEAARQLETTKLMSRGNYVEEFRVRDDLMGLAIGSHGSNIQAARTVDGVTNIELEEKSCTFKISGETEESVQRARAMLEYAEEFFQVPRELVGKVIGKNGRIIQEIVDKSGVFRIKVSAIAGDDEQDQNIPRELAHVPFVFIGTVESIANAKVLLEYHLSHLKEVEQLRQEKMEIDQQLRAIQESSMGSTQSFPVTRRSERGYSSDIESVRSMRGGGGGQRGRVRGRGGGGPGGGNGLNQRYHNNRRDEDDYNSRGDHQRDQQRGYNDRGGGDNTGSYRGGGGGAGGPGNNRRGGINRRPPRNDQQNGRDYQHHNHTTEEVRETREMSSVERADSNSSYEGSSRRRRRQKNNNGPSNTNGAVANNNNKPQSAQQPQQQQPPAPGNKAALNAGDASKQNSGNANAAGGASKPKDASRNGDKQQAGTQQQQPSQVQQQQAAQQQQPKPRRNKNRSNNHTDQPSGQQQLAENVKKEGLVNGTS

Biological target: Drosophila Fragile-X mental retardation protein (DFMRP) (Drosophila (endogenous in fly brains)) (UniProt Q9NFU0)
Experiment: co-IP; fly protein extracts (adult heads or larval body wall muscle preparations with brains) precleared, incubated with mouse anti-DFMRP at 4°C overnight, protein A/G agarose beads, washed 3 times with RIPA buffer, blot with anti-DTor; control, DTor-cDNA and DTor-RNAi expressing brains

B1: Drosophila Torsin (DTor) expressed from UAS-DTor-cDNA (protein, UniProt O77277 25-340)
chain: VDPLTIGAVGAVALGAYFKEHTYCRFAECCDDRNIPARIDELERSLERTLIGQHIVRQHIVPALKAHIASGNKSRKPLVISFHGQPGTGKNFVAEQIADAMYLKGSRSNYVTKYLGQADFPKESEVSNYRVKINNAVRDTLRSCPRSLFIFDEVDKMPSGVFDQLTSLVDYNAFVDGTDNTKAIFIFLSNTAGSHIASHLGSVMKNGRLREDTRLSDFEPLLRKAAYNMDGGMKKTTMIESHVIDHFIPFLPMEKAHVIKCLEAELLRWRRDPKQANNQKIIEDIINSSISYDRTHSLFAISGCKTLEKKVAMAIY
binding: binds
